Measurements reported in article PMC9984397.
Results are given in words; binding and its absence hold for the method and conditions named. Binding seen in cells or lysates may run through a third protein. Some binding calls cover weakened binding; strength is not graded here. Sequences can lack the tags named with a protein.

Target: T1, CSCC3: AtSCC3 fused with the C-terminal of LUC (Arabidopsis thaliana) (UniProt O82265)
T1 sequence: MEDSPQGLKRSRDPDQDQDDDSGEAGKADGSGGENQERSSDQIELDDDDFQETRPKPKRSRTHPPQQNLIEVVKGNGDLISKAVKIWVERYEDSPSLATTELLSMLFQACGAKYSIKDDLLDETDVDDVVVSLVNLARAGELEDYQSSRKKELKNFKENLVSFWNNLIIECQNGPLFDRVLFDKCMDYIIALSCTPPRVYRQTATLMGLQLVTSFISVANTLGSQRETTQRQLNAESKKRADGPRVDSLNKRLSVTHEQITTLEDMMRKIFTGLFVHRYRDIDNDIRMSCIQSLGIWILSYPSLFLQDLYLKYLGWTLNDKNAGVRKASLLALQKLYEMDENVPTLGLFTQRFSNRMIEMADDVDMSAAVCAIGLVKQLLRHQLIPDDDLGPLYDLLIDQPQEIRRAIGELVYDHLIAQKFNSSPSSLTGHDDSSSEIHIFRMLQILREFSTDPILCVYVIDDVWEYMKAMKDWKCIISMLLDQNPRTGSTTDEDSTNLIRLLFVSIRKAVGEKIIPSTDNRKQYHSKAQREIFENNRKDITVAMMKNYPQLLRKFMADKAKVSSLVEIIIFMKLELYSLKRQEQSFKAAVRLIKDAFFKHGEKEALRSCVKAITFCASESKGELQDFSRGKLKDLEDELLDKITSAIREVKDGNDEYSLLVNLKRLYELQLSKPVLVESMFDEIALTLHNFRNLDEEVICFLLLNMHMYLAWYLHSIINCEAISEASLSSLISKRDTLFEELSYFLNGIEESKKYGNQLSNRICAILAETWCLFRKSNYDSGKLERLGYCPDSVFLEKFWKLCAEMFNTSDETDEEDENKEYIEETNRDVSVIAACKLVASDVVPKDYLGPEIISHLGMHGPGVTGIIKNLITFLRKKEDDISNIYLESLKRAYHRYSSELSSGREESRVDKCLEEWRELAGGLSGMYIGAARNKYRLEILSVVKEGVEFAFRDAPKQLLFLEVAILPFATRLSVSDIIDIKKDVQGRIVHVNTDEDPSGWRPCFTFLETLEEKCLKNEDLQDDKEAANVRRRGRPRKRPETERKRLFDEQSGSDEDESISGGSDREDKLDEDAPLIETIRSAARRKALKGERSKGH
Assay: split reporter; firefly luciferase complementation imaging; N- and C-terminal LUC fragment fusions co-infiltrated into N. benthamiana leaves, imaged 48 h later with luciferin

binding: binds
B1: AtRING1A, LUC-fragment fusion (protein, UniProt Q9FKW0 1-522)
chain: MSVKNNSFSSAEIPDVADQPRDRFNPEATQDLQEKDETKEEKEGDEEVKHDEAEEDQEVVKPNDAEEDDDGDDAEEDEEEEVEAEEDEEAEEEEEEEEEEEEEEEDSKERSPSSISGDQSEFMEIDLGEIRKDVQCPICLGIIKKTRTVMECLHRFCRECIDKSMRLGNNECPACRKHCASRRSLRDDPKFDALIAALFTNIDSYEEEELAFHEDEMARNKQIQASIAQISQRQSEALVKRRSLGKEAAVLMRSPRIASGSRRRRNSRNMEQQNASEAHEDDDNDDNNNRGRDKDSSSDERGTEVRQKKRRKRSTSRSTQHPSSSGANKNNGNCADNDTEVYRDTKGISPGLVWNPEILAWGRGGTRSNTRHGNNTSGGSSKSVRNARVNKLVEYLRSSVDGSSVELDIHVKLVSLDTKCIPDLPQPYLCCRPTLLVKQLREFVALQIHLKTEEVELLVTRRRVGEDAAIENLPAVTPASAAASKDEMLSLEDNETLSRLKIDFISSHEQHLIIAYRKKQTE
